Laboratory results from paper PMC4559404.

Protein sequences, listed by entry. Tags and fused reporters are not part of them. Lines headed by an entry give the natural chain unless they say otherwise; changes in a name come on top.
UniProt A4HVG8: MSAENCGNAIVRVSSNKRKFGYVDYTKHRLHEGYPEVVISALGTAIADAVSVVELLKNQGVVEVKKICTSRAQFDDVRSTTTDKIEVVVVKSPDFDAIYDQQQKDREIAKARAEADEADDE
UniProt A4IA34: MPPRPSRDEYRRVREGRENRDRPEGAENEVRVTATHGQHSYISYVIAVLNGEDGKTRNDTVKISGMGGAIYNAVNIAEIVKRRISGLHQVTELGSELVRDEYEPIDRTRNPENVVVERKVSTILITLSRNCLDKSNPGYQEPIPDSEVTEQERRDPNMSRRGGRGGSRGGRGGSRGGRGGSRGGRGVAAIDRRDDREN
UniProt A4I011: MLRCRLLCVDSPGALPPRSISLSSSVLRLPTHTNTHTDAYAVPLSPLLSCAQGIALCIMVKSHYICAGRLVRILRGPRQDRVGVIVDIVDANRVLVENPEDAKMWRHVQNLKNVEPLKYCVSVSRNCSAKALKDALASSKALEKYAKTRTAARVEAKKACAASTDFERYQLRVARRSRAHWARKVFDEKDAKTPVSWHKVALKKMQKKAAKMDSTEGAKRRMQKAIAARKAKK
UniProt A0A381MCG8: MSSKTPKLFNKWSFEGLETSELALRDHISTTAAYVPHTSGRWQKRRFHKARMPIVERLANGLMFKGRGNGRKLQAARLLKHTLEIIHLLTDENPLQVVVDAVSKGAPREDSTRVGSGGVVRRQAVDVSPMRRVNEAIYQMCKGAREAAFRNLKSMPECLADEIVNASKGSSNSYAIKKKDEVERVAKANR
UniProt A4HZI4: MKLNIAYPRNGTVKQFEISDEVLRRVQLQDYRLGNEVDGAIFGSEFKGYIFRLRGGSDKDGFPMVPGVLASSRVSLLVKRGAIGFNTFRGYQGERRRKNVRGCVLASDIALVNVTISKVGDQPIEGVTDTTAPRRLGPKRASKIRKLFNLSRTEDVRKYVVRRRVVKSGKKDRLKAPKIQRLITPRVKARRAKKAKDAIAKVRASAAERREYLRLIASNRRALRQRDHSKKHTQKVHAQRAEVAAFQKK
UniProt A4I3H3: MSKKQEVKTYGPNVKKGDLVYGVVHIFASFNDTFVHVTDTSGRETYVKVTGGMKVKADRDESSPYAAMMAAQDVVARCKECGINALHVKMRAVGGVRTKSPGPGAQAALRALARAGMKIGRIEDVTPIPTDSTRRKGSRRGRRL
UniProt A4ID74: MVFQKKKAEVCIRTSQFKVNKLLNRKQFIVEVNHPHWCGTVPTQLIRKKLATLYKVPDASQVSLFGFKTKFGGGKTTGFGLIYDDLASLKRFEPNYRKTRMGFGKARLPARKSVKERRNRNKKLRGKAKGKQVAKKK
UniProt A4IDS4: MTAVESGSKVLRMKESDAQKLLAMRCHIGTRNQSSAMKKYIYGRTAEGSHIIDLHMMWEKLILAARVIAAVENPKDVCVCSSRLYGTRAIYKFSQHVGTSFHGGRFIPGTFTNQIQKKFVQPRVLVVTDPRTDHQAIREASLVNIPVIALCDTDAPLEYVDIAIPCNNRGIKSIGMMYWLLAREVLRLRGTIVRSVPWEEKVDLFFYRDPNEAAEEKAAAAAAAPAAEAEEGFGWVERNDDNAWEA
UniProt A4HSU9: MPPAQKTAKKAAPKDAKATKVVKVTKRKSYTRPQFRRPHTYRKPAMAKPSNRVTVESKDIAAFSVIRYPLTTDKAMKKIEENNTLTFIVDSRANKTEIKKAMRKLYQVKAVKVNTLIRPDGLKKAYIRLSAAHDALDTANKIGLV
UniProt A4HZ42: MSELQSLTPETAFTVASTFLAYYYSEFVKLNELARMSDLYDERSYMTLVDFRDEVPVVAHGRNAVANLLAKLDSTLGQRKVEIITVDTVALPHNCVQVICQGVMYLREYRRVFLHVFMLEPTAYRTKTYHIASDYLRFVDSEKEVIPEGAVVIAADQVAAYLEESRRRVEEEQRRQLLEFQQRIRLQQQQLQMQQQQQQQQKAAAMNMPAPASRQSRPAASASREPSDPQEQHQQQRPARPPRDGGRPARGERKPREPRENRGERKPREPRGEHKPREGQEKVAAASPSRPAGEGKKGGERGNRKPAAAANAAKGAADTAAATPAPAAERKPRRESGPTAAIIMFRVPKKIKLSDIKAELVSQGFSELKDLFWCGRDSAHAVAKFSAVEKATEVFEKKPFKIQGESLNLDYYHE
UniProt A4I7P2: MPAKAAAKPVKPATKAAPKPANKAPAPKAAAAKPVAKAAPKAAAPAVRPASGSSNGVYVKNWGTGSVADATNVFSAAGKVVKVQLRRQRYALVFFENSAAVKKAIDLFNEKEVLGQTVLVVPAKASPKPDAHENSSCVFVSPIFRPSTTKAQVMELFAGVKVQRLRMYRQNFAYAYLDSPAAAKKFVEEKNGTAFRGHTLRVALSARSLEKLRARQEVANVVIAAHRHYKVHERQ
UniProt A4I4G7: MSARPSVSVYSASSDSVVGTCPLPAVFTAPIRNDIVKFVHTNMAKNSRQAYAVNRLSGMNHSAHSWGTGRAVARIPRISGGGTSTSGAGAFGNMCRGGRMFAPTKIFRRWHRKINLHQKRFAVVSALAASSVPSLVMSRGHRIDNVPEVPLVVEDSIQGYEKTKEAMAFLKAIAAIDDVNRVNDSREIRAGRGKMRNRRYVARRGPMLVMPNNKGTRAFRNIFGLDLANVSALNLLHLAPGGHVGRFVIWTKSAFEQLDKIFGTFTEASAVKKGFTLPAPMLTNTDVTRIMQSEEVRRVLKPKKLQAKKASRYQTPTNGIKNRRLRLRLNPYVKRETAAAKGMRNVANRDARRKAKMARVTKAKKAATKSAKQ
UniProt A4IAU0: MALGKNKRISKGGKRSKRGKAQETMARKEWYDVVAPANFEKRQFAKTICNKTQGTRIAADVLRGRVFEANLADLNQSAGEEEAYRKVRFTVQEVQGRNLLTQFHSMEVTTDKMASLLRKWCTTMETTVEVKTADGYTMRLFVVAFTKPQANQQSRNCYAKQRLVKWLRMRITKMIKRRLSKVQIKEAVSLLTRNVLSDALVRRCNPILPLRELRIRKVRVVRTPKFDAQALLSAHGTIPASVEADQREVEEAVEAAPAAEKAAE
UniProt A4I3Y8: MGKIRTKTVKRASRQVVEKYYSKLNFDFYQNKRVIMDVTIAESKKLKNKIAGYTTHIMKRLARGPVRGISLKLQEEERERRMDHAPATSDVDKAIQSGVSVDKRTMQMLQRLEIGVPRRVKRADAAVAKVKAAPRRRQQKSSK
UniProt A4IA55: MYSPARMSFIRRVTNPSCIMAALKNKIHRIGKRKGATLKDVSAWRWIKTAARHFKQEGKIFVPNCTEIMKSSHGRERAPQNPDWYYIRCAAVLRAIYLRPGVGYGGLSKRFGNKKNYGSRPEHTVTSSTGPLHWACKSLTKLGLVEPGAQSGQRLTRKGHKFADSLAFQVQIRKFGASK
UniProt A4IB88: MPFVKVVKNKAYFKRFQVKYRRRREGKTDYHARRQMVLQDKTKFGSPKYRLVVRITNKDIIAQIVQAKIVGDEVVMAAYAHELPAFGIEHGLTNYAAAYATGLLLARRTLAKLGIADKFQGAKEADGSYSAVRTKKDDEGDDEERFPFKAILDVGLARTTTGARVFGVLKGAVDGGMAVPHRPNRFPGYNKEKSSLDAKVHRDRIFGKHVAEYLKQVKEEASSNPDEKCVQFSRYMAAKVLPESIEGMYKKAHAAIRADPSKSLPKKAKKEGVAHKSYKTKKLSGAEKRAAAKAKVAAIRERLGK
UniProt A4HT78: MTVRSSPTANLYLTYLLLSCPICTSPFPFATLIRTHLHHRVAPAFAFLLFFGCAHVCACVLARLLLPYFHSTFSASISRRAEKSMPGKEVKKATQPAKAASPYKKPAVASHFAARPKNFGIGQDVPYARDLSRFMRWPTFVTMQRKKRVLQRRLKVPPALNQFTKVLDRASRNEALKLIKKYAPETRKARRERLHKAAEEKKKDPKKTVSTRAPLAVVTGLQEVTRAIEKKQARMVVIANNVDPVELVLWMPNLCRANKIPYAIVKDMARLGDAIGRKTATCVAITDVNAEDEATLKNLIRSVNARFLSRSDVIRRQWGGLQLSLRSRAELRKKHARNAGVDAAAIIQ
UniProt A4I4W0: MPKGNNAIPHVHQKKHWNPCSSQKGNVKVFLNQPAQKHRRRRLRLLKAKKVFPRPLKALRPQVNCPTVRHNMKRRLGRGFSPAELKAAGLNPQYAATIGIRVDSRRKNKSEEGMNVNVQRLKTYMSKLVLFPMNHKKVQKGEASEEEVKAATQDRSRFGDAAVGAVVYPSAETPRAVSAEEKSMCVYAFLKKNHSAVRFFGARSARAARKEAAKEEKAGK
UniProt A4I114: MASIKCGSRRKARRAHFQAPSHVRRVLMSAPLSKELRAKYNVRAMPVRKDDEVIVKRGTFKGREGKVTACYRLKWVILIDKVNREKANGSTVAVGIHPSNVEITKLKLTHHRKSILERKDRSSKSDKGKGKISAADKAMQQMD
UniProt A4I7K4: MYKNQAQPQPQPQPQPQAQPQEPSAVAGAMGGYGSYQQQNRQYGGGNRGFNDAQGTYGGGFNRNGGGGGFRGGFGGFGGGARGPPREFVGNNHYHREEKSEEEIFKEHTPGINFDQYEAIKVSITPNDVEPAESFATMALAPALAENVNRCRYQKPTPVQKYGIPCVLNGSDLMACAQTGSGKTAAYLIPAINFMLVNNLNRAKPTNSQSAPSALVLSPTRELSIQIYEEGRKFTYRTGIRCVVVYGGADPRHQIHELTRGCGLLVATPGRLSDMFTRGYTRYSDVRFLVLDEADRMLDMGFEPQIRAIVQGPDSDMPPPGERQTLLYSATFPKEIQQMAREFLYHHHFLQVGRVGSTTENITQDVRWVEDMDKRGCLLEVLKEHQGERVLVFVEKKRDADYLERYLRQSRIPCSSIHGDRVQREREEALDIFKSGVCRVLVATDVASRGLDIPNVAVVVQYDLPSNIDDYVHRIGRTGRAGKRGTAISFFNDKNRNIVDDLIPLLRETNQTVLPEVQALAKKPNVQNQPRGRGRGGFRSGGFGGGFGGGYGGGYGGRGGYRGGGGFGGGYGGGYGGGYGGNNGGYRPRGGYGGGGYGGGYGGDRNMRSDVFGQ
UniProt E9AHW1: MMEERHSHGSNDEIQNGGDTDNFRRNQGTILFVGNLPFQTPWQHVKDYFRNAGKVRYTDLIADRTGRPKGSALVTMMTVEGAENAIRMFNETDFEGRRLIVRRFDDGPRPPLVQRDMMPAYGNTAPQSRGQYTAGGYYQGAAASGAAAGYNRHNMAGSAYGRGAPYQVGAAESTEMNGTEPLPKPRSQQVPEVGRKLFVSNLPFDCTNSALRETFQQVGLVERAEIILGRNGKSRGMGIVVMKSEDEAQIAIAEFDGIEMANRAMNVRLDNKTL
UniProt A4I2T3: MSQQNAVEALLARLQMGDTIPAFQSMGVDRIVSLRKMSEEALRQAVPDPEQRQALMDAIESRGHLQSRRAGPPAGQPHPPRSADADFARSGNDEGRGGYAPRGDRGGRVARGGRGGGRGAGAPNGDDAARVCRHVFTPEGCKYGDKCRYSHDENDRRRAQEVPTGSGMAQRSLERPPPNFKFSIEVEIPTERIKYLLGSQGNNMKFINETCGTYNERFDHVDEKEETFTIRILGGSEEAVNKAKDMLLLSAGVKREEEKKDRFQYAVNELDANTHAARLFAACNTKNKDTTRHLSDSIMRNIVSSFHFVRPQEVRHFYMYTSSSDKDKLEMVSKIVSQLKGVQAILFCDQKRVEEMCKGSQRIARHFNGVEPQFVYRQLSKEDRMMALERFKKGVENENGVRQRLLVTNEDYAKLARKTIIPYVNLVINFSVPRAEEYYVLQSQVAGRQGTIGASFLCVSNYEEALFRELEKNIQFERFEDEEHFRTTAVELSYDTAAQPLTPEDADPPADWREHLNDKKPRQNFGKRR
UniProt A4I195: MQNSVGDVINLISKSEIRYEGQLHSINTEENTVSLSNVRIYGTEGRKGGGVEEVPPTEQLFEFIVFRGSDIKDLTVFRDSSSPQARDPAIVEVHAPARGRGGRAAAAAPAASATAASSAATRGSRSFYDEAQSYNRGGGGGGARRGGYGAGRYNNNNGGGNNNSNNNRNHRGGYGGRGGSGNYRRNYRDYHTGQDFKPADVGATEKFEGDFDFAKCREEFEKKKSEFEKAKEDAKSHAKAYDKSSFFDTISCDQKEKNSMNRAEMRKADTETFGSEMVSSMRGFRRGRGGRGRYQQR
UniProt A4HRG4: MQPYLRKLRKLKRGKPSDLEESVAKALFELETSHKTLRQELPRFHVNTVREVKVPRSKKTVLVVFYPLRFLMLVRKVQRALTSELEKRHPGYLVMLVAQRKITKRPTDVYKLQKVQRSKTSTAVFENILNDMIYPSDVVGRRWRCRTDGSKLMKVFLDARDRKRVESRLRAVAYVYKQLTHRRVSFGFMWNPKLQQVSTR
UniProt A4HXQ6: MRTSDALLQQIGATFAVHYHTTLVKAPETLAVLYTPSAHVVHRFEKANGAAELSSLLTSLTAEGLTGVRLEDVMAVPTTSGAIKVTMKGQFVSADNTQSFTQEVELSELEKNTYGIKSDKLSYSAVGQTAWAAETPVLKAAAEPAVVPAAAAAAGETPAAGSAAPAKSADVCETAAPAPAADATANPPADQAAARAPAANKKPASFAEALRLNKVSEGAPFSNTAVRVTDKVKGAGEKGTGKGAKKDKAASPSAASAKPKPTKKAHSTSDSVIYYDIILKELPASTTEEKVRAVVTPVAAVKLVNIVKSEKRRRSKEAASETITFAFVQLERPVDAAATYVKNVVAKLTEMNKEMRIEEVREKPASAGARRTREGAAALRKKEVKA

Columns and labels:
LiAlba1-HA (L. infantum) = LiAlba1-HA (L. infantum) (UniProt A4HVG8); test: affinity purification with mass spectrometry; anti-HA antibody on Dynabeads Protein G; pre-cleared cytoplasmic extracts (10 mM Hepes, 3 mM MgCl2, 14 mM KCl, pH 7.5, 5% glycerol, 0.2% NP-40) of L. infantum promastigotes and axenic amastigotes expressing LiAlba1-HA or HA-LiAlba3; 90 min at 4°C; LC-MS/MS; only proteins absent from the wild type control
HA-LiAlba3 (L. infantum) = HA-LiAlba3 (L. infantum) (UniProt A4IA34); test: as above

Substance	binding (LiAlba1-HA (L. infantum))	binding (HA-LiAlba3 (L. infantum))
40S ribosomal protein L14, putative (from UniProt A4I011)	binds	–
40S ribosomal protein S5 (from UniProt A0A381MCG8)	binds	–
40S ribosomal protein S6, putative (from UniProt A4HZI4)	binds	binds
40S ribosomal protein S14 (from UniProt A4I3H3)	binds	binds
40S ribosomal protein S24e (from UniProt A4ID74)	binds	binds
40S ribosomal protein SA, putative (from UniProt A4IDS4)	binds	binds
60S ribosomal protein L23a, putative (from UniProt A4HSU9)	binds	binds
LiAlba3 (endogenous) (from UniProt A4IA34)	binds	–
NTF2-like protein LinJ.21.0490 (from UniProt A4HZ42)	binds	binds
RNA binding protein, putative (LinJ.32.0790) (from UniProt A4I7P2)	binds	binds
putative vacuolar protein (LinJ.19.0020) (from UniProt A4HY41)	binds	binds
ribosomal protein L1a, putative (from UniProt A4I4G7)	binds	binds

Now from value to substance:

binding (LiAlba1-HA (L. infantum))	binding (HA-LiAlba3 (L. infantum))	Substance
binds	binds	40S ribosomal protein S3, putative (from UniProt A4HWJ3)
binds	binds	40S ribosomal protein S3A, putative (from UniProt A4IAU0)
binds	binds	40S ribosomal protein S17, putative (from UniProt A4I3Y8)
binds	binds	40S ribosomal protein S19 protein, putative (from UniProt A4IA55)
binds	binds	60S ribosomal protein L5, putative (from UniProt A4IB88)
binds	binds	60S ribosomal protein L7a, putative (from UniProt A4HT78)
binds	binds	60S ribosomal protein L9, putative (from UniProt A4I672)
binds	–	60S ribosomal protein L11 (L5, L16) (from UniProt A4HS42)
binds	binds	60S ribosomal protein L13, putative (from UniProt A4I4W0)
–	binds	60S ribosomal protein L26, putative (from UniProt A4I114)
binds	binds	DEAD-box ATP-dependent RNA helicase LinJ.32.0410 (from UniProt A4I7K4)
binds	binds	RNA-binding protein, putative | DRBD2 (from UniProt E9AHW1)
binds	binds	ZC3H41 helicase homolog (LinJ.27.1220) (from UniProt A4I2T3)
–	binds	dipeptidyl-peptidase III (LinJ.05.0960) (from UniProt A4HSL8)
binds	binds	homolog of Rap55 (LinJ.25.0550) (from UniProt A4I195)
binds	–	reticulon domain protein, 22 potentially aggravating protein (from UniProt Q9NJS2)
binds	binds	ribosomal protein S7, putative (from UniProt A4HRG4)
binds	binds	second NTF-2 like protein specific of trypanosomatids (LinJ.18.0300) (from UniProt A4HXQ6)

These are yes or no findings as the source states them, for the method shown. Binding seen in cells or lysates may run through a third protein. A yes stands for co-enrichment or nearness to the bait. Other partners may have been found.
